At least one peptide structure holds a part that was inferred or is arguable (an end, a ring closure or a residue). Residues, ends and D or L forms follow the SMILES beside them.
System: polycythemic exhypoxic mice (59Fe incorporation)
Assay: Polycythemic exhypoxic mouse bioassay
Assay type: in vivo
Details: approximate equivalency; Table 23
Experimental: J. Polycythemic Exhypoxic Mouse Bioassay
Female BDF1 mice (18-20 gms) are subjected to a conditioning cycle (in hypobaric chambers) of 18 hrs. at 0.40±0.02 atm. and 6 hrs. at ambient pressure for a period of 14 days.
Mice are maintained at ambient pressure for 72 hrs prior to administration of r-HuEPO or test samples. Test samples or r-HuEPO standard are diluted for injection into conditioned mice. The vehicle consists of: PBS containing 0.1% BSA (w/v). For each dilution, 0.5 ml is administered subcutaneously into each of 10 mice. ^59 Fe is administered 48 hrs. later. Blood samples are taken 48 hrs. following administration of ^59 Fe. Hematocrits and radioactivity measurements are determined for each sample. Dose range and results (two different assays) are set forth in Table 22 and FIGS. 17A-17C, infra.

SMILES	Amount of Peptide Equivalent to 0.025 units of EPO
CC(C)C[C@@H]1NC(=O)[C@@H]2CCCN2C(=O)CNC(=O)[C@H](Cc2ccccc2)NC(=O)[C@H](Cc2c[nH]cn2)NC(=O)[C@@H](NC(=O)[C@H](CO)NC(=O)[C@H](Cc2ccc(O)cc2)NC(=O)[C@@H](NC(=O)CNC(=O)CN)[C@@H](C)O)CSSC[C@@H](C(=O)N[C@@H](CCCCN)C(=O)N2CCC[C@H]2C(=O)N[C@@H](CCC(N)=O)C(N)=O)NC(=O)[C@H](C(C)C)NC(=O)[C@H](Cc2c[nH]c3ccccc23)NC(=O)[C@H]([C@@H](C)O)NC1=O [RWJ 61596] (HELM PEPTIDE1{G.G.T.Y.S.C.H.F.G.P.L.T.W.V.C.K.P.Q.[am]}$PEPTIDE1,PEPTIDE1,6:R3-15:R3$$$V2.0)	0.5 nmol
CC(C)C[C@@H]1NC(=O)[C@@H]2CCCN2C(=O)CNC(=O)[C@H](Cc2ccccc2)NC(=O)[C@H](Cc2c[nH]cn2)NC(=O)[C@@H](NC(=O)[C@H](CO)NC(=O)[C@H](Cc2ccc(O)cc2)NC(=O)[C@H](CCCCN)NC(=O)[C@H](CCCNC(=N)N)NC(=O)CNC(=O)[C@@H](N)CC(C)C)CSSC[C@@H](C(=O)N[C@@H](CCC(N)=O)C(=O)N2CCC[C@H]2C(=O)N[C@@H](C)C(=O)N[C@@H](CCCCN)C(=O)N[C@@H](CCCCN)C(=O)N[C@@H](CC(=O)O)C(N)=O)NC(=O)[C@H](C(C)C)NC(=O)[C@H](Cc2c[nH]c3ccccc23)NC(=O)[C@H]([C@@H](C)O)NC1=O [RWJ 61757] (HELM PEPTIDE1{L.G.R.K.Y.S.C.H.F.G.P.L.T.W.V.C.Q.P.A.K.K.D.[am]}$PEPTIDE1,PEPTIDE1,7:R3-16:R3$$$V2.0)	3.1 nmol

Reference: US5773569A (Affymax Technologies N.V., priority 1995, dated 1998)
